Values from PubChem BioAssay AID1259254 (NCATS, 2017).
Here is an unselected part of about 59,000 reagents tested. About 1,550 of them (2.6%) were called active. 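G2 share is only a proxy for re-replication; each gene was hit by three separate siRNAs, and active genes were retested.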 Reagents against one gene are numbered here. Further read-outs or replicates are left out here. Not stated in the record: the amount of reagent.

Purpose: 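Genome-wide screen for genes that prevent DNA re-replication in cancer cells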 (primary screen)
Cell system: human HCT116 colorectal cancer cells
Reagent: single siRNA against human genes
Duration: 3 days
Measurement: 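Imaged Hoechst DNA stain sorts each cell into a cycle phase by DNA amount; per plate, G2 fraction set to 0% for non-targeting and 100% for GMNN siRNA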
Reading the numbers: G2 robust z-score and G2 cells, % of GMNN control: higher = more G2 cells, more excess DNA replication
Active means: 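Active siRNAs have a G2 robust z of 5 or more median absolute deviations over the median, which in these data means about 38% or higher of GMNN control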

no.	gene	reagent no.	G2 robust z-score	G2 cells, % of GMNN control	Outcome
1	TMED6	1	-0.776	-2.49	inactive
2	TMED6	2	-0.471	-0.349	inactive
3	TMED6	3	0.874	9.12	inactive
4	BCO2	1	0.196	4.35	inactive
5	BCO2	2	0.266	4.84	inactive
6	BCO2	3	-1.18	-5.34	inactive
7	POLR1H	1	-0.517	-0.671	inactive
8	POLR1H	2	-0.435	-0.0929	inactive
9	POLR1H	3	0.195	4.34	inactive
10	GABRG1	1	0.00587	3.01	inactive
11	GABRG1	2	0.23	4.59	inactive
12	GABRG1	3	-0.0798	2.41	inactive
13	RHOC	1	-0.157	1.86	inactive
14	RHOC	2	1.49	13.5	inactive
15	RHOC	3	-0.906	-3.41	inactive
16	UGGT1	1	0.951	9.66	inactive
17	UGGT1	2	0.499	6.48	inactive
18	UGGT1	3	-0.122	2.11	inactive
19	PLCXD2	1	-1.13	-5	inactive
20	PLCXD2	2	-0.0543	2.59	inactive
21	PLCXD2	3	-1.34	-6.47	inactive
22	ZSCAN5C	1	-0.619	-1.39	inactive
23	ZSCAN5C	2	0.311	5.15	inactive
24	ZSCAN5C	3	-0.703	-1.98	inactive
25	RNASE4	1	3.56	28	inactive
26	RNASE4	2	0.412	5.86	inactive
27	RNASE4	3	-1.03	-4.29	inactive
28	PLIN1	1	0.342	5.37	inactive
29	PLIN1	2	-0.246	1.23	inactive
30	PLIN1	3	3.81	29.8	inactive
31	HTR2B	1	-1.24	-5.79	inactive
32	HTR2B	2	-1.16	-5.19	inactive
33	HTR2B	3	0.663	7.63	inactive
34	SATB1	1	1.07	10.5	inactive
35	SATB1	2	-0.169	1.78	inactive
36	SATB1	3	-0.33	0.642	inactive
37	TNFRSF6B	1	-0.55	-0.905	inactive
38	TNFRSF6B	2	-0.103	2.24	inactive
39	TNFRSF6B	3	1.02	10.1	inactive
40	GJA9	1	0.737	8.15	inactive
41	GJA9	2	-1.03	-4.28	inactive
42	GJA9	3	-0.0539	2.59	inactive
43	ABHD2	1	2.22	18.6	inactive
44	ABHD2	2	3.45	27.3	inactive
45	ABHD2	3	-0.532	-0.773	inactive
46	ZMYM6	1	-0.305	0.822	inactive
47	ZMYM6	2	0.851	8.96	inactive
48	ZMYM6	3	-1.44	-7.19	inactive
49	CLLU1-AS1	1	-0.2	1.56	inactive
50	CLLU1-AS1	2	0.0884	3.59	inactive
51	CLLU1-AS1	3	-0.102	2.25	inactive
52	CDCA8	1	10.6	77.2	active
53	CDCA8	2	13.4	97.1	active
54	CDCA8	3	6.34	47.6	active
55	CASC16	1	-0.162	1.83	inactive
56	CASC16	2	1.67	14.7	inactive
57	CASC16	3	0.967	9.77	inactive
58	STAG2	1	-0.549	-0.893	inactive
59	STAG2	2	-1.07	-4.56	inactive
60	STAG2	3	0.272	4.88	inactive
61	SEL1L3	1	1.53	13.8	inactive
62	SEL1L3	2	0.969	9.79	inactive
63	SEL1L3	3	-0.658	-1.66	inactive
64	PRPH	1	-0.152	1.9	inactive
65	PRPH	2	-1.07	-4.54	inactive
66	PRPH	3	-0.764	-2.41	inactive
67	SFTA3	1	-0.808	-2.72	inactive
68	SFTA3	2	0.574	7.01	inactive
69	SFTA3	3	0.835	8.84	inactive

9 of these entries in another layout:
{"gene":"CDCA8","reagent no.":2,"G2 robust z-score":13.4,"G2 cells, % of GMNN control":97.1,"Outcome":"active"}
{"gene":"CDCA8","reagent no.":3,"G2 robust z-score":6.34,"G2 cells, % of GMNN control":47.6,"Outcome":"active"}
{"gene":"CASC16","reagent no.":1,"G2 robust z-score":-0.162,"G2 cells, % of GMNN control":1.83,"Outcome":"inactive"}
{"gene":"CASC16","reagent no.":2,"G2 robust z-score":1.67,"G2 cells, % of GMNN control":14.7,"Outcome":"inactive"}
{"gene":"CASC16","reagent no.":3,"G2 robust z-score":0.967,"G2 cells, % of GMNN control":9.77,"Outcome":"inactive"}
{"gene":"STAG2","reagent no.":1,"G2 robust z-score":-0.549,"G2 cells, % of GMNN control":-0.893,"Outcome":"inactive"}
{"gene":"STAG2","reagent no.":2,"G2 robust z-score":-1.07,"G2 cells, % of GMNN control":-4.56,"Outcome":"inactive"}
{"gene":"STAG2","reagent no.":3,"G2 robust z-score":0.272,"G2 cells, % of GMNN control":4.88,"Outcome":"inactive"}
{"gene":"SEL1L3","reagent no.":1,"G2 robust z-score":1.53,"G2 cells, % of GMNN control":13.8,"Outcome":"inactive"}
